# Reference: PubChem BioAssay AID1347076 (National Center for Advancing Translational Sciences (NCATS), 2019)
# About 13,000 (3.2%) of roughly 400,000 compounds were called active. The shares of active, inactive and inconclusive entries below differ from those in the screen. Calls follow the shape of the dose curve; as a rule, active = well fitted cell-killing curve with a large enough effect; inconclusive = small, poorly fitted or top-dose-only effect, or effect the other way; inactive = flat fitted curve, though single readings scatter. Potencies beside an inconclusive call are fits to weak or partial responses and may not hold up.
# Test: qHTS assay for MDR1-selective chemotherapeutics: Primary screen using the drug-selected MDR subline cells KB-V1; also: nearly all actives have a fitted effect of over 60% in size
# Conditions: KB-V1 MDR cells viability, CellTiter-Glo, 72 h; series mostly up to 46.1 µM
# How it was run: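 KB-V1 cells (P-gp-expressing MDR subline of KB-3-1) in phenol-red-free DMEM with 10% FBS were exposed to library compounds over a concentration series for 72 h at 37 degrees C. Viability read by CellTiter-Glo luminescence; concentration-effect curves fitted after normalization.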
# Potency is read from the fitted curve at half-maximal effect.
row,Compound,Potency
1,NS(=O)(=O)c1cccc(NS(=O)(=O)c2ccc(/C=C/C(=O)OCC(=O)c3ccccc3)cc2)c1,"inconclusive: 29.1 µM [rising, single point]"
2,COc1ccc(NC(=O)CN2C(=O)CCc3cc(S(=O)(=O)N4CCOCC4)ccc32)c(OC)c1,"inconclusive: 6.51 µM [rising, partial curve, poor fit]"
3,COc1ccc(CN2CCN(c3ccccc3OC)CC2)cc1OC,"inconclusive: 29.1 µM [cytotoxic, single point]"
4,Cc1nn(-c2ccccc2)c(Cl)c1C(=O)NC1CCCCC1,inactive
5,Cc1c(/C=C/C(=O)c2ccc(Cl)s2)cnn1C,"inconclusive: 32.6 µM [cytotoxic, single point]"
6,COc1ccc(Cc2nnc(NC(=O)CSc3ccc(C)cc3)s2)cc1,"inconclusive: 18.4 µM [cytotoxic, single point]"
7,Cc1nn(-c2ccccc2)c(C)c1NC(=O)COc1cc(F)ccc1[N+](=O)[O-],"inconclusive: 29.1 µM [cytotoxic, single point]"
8,CCN(CC)C(=O)CNC(=S)N(CCCN1CCOCC1)Cc1cccs1,active: 7.31 µM
9,CCc1ccc(NC(=S)NCc2cccnc2)cc1,inactive
10,Oc1ccc(-c2[nH]ncc2-c2ccc(Br)cc2)c(O)c1,"inconclusive: 0.731 µM [cytotoxic, full curve, poor fit]"
11,CCNC(=O)c1c(C)oc2ncn(C)c(=O)c12,inactive
12,CCc1ccc(CNC(=O)CSc2cc(=O)n(CC)c3ccccc23)cc1,inactive
13,CCc1ccc(OCC(=O)Oc2ccc([N+](=O)[O-])cc2)cc1,"inconclusive: 29.1 µM [rising, single point]"
14,COc1ccc(-n2c(=S)[nH]c3cc(C(=O)NCc4cccnc4)ccc3c2=O)cc1,inactive
15,c1ccc(NCc2nc3ccccc3n2CCOc2ccccc2)cc1,"inconclusive: 20.6 µM [cytotoxic, partial curve, poor fit]"
16,Cc1ccc(C(C(=O)NC(C)(C)C)N(Cc2ccc3c(c2)OCO3)C(=O)c2ccc(CN3CCOCC3)o2)o1 (centres undefined),"inconclusive: 7.31 µM [cytotoxic, partial curve, poor fit]"
17,O=C(CCc1ccccc1)Nc1cccc(-c2nnc(-c3ccco3)o2)c1,"inconclusive: 6.51 µM [cytotoxic, partial curve]"
18,COc1ccc(N2CCN(C(=O)c3ccc4c(=O)n(CCc5ccc(OC)c(OC)c5)c(=O)[nH]c4c3)CC2)cc1,"inconclusive: 16.4 µM [cytotoxic, single point]"
19,Cc1ccc(CNC(=O)c2oc3ccc(S(=O)(=O)N4CCC5(CC4)OCCO5)cc3c2C)cc1,"inconclusive: 16.4 µM [cytotoxic, partial curve]"

# Looked up above:
# Potency with `COc1ccc(NC(=O)CN2C(=O)CCc3cc(S(=O)(=O)N4CCOCC4)ccc32)c(OC)c1` reads inconclusive: 6.51 µM [rising, partial curve, poor fit]
# Potency with `COc1ccc(CN2CCN(c3ccccc3OC)CC2)cc1OC` reads inconclusive: 29.1 µM [cytotoxic, single point]
